Some of these results come from one statement about several compounds together.
Biological target: hKv1.3 channels (Homo sapiens, UniProt P22001)
Assay: Whole-cell patch-clamp block of hKv1.3 channels endogenously expressed in human peripheral blood T cells
Assay type: cell-based
Set-up: channels expressed endogenously in human peripheral blood T cells; endogenous in cells; host or cells: human peripheral blood T lymphocytes from healthy volunteers, PHA-stimulated

Chains of the proteins cited; added tags and fusions are not shown.
UniProt P22001, whole entry: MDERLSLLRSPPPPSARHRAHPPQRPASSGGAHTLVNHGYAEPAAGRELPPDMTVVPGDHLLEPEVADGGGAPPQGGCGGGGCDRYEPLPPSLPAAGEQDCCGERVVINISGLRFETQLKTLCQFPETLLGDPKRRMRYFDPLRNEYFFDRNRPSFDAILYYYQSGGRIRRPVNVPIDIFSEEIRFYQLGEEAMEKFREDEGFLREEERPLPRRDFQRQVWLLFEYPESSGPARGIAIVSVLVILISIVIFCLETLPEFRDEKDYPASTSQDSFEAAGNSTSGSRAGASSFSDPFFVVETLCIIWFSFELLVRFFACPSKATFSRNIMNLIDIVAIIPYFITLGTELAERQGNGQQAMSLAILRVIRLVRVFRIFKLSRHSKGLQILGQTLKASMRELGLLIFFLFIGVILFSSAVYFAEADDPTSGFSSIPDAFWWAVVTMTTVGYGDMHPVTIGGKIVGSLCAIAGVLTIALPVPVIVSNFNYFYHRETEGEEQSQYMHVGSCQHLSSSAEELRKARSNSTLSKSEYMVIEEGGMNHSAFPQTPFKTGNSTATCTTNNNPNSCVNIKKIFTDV

In the case of `CC[C@H](C)[C@H](NC(=O)[C@H](C)NC(=O)[C@H](C)NC(=O)[C@H](C)N)C(=O)N[C@@H](CO)C(=O)N[C@H]1CSSC[C@@H]2NC(=O)[C@H](CCCCN)NC(=O)CNC(=O)[C@H](CC(N)=O)NC(=O)[C@H](CCCCN)NC(=O)[C@@H]3CSSC[C@@H](C(N)=O)NC(=O)[C@H](Cc4ccc(O)cc4)NC(=O)[C@H](Cc4ccc(O)cc4)NC(=O)[C@@H]4CSSC[C@H](NC(=O)[C@H](CCCCN)NC(=O)[C@@H]5CCCN5C(=O)[C@@H]5CCCN5C(=O)[C@H](CSSC[C@H](NC(=O)[C@H](CCCCN)NC(=O)[C@H](CCCNC(=N)N)NC(=O)[C@H](CC(N)=O)NC(=O)[C@H](CCSC)NC2=O)C(=O)N[C@@H](CCCCN)C(=O)N4)NC(=O)[C@H](CCC(=O)O)NC(=O)[C@@H]2CCCN2C(=O)[C@H](CO)NC(=O)CNC(=O)[C@H](C(C)C)NC1=O)C(=O)N[C@@H](CCCNC(=N)N)C(=O)N[C@@H](C)C(=O)N[C@@H](CCC(N)=O)C(=O)NCC(=O)N3` [Vm24], the “concentration blocking ≦50% of a couple of other K channels, times that needed to block the same fraction of hKv1.3” value is reported as “more than 3000 times”.

“Vm23: 35 amino acid peptide from V. mexicanus venom, SEQ ID NO:1, four disulfide bridges, 83% identical to Vm24 (AAAISCVGSKECLPKCKAQGCKSGKCMNKKCKCYC)” was tested, and the “concentration blocking ≦50% of a couple of other K channels, times that needed to block the same fraction of hKv1.3” value was “more than 3000 times”.

From patent US8394770B2 (priority 2007, dated 2013)
